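Genome-wide siRNA knockdown in TC32 Ewing sarcoma cells, comparing luciferase light from an NR0B1-promoter reporter with a CMV-promoter reporter 48 hours after transfection.
Each siRNA was applied at 20 nM.
A z-score of the log NR0B1-over-CMV signal, less the median of siRNAs with the same seed; more negative means a stronger specific loss of the NR0B1 reporter.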

This is part of the screen; most of the strongest results are not listed here.
Sequences are the guide (antisense) strand, without overhang.

Sequence: UAGGCUUUUGUUGUCUUCG
gene: FAM71B
seed-corrected z-score: 0.2962

Sequence: AUUUUGACACGGUCGAAGC
gene: ROMO1
seed-corrected z-score: 0.6948

Sequence: ACUGUCUUGACCUGUUUCC
gene: CCDC8
seed-corrected z-score: -1.603

Sequence: UCCCUUAAUGGGUAGCUUG
gene: SHF
seed-corrected z-score: 0.2458

Sequence: UUUUGAUGUAGAAAGUGUC
gene: CRABP2
seed-corrected z-score: -0.1719

Sequence: UUCUGUACAAGACGCGGUC
gene: INPP5E
seed-corrected z-score: 0.008052

Sequence: UACGUGAGAGUCGAGCUGC
gene: SNAPIN
seed-corrected z-score: -0.5704

Sequence: UUCUGGUUGACGGAGGAGC
gene: C19orf57
seed-corrected z-score: -0.5246

Sequence: UCUUCUUCGACUGAGAUCA
gene: ZP4
seed-corrected z-score: 1.44

Sequence: UAUAGGGAGGAAGUUUUCU
gene: TMEM196
seed-corrected z-score: 0.4568

Sequence: AAGCUGAGCAUGAAUAUGG
gene: ADCY5
seed-corrected z-score: -0.6654

Sequence: UAAGAUGCCAUCAUGGGAG
gene: HSPB2
seed-corrected z-score: 0.3129

Sequence: UAUUCAACUUCUAACAAGU
gene: CT55
seed-corrected z-score: 1.069

Sequence: UUUCUUAGUCCAUGCCAGC
gene: CCDC85B
seed-corrected z-score: -0.02854

Sequence: UUAGGGAUUCGAUAUCCUG
gene: PPFIA2
seed-corrected z-score: 0.9514

Sequence: UUGAGGAUCAGUACAGACA
gene: HMGN1
seed-corrected z-score: -1.279

Sequence: UGAAUGUCAAAGAAUAGCA
gene: MPC1
seed-corrected z-score: -0.3518

Sequence: AUAAGAAUCAGAUAUCCUG
gene: GRTP1
seed-corrected z-score: -0.09804

Sequence: UAAGGUUCGCAGUCCUUCC
gene: POLM
seed-corrected z-score: -1.334

Sequence: UUGCGGAUAAUGCACGGCC
gene: JMJD7-PLA2G4B
seed-corrected z-score: -1.595

Sequence: UAUAUGACAAUUGCAACUC
gene: ADAM20
seed-corrected z-score: -0.6768

Sequence: UCCAUACUGACCAUCUUCU
gene: ZNF669
seed-corrected z-score: 0.1811

Sequence: UUCUUCCCAACCUUUGGUG
gene: CCDC112
seed-corrected z-score: -0.386

Sequence: UUCGGUUCUAGGUCUCGUC
gene: SCRT1
seed-corrected z-score: 0.447

Sequence: UCUUGUAUGAAAGCUUAUG
gene: RPS2P45
seed-corrected z-score: 0.1613

Sequence: AAAAUGUCCGUGUUAGUUG
gene: BPIFA2
seed-corrected z-score: 0.3544

Sequence: UUGGUAGACCAUGAAGUUG
gene: MRPL18
seed-corrected z-score: 0.05769

Sequence: AAAUAGGCAAAAACAAUCG
gene: SV2B
seed-corrected z-score: -0.3201

Sequence: AUUCCGGUCACAGACAUGC
gene: GEMIN6
seed-corrected z-score: 0.01123

Sequence: UUGUUUUUGCUUCCCUUUG
gene: HMGA1
seed-corrected z-score: 0.5437

Sequence: AAAUGGUCCGGAUUGAAUG
gene: CYP2J2
seed-corrected z-score: 0.2095

Sequence: UAAAGGAGAACUGCUCUGU
gene: CRYM
seed-corrected z-score: 1.219

Sequence: UCCAGUGCCGAGUUGAGGU
gene: NEUROG3
seed-corrected z-score: -0.3711

Sequence: UCAAAUCCUCUUGGUAUGC
gene: WBP4
seed-corrected z-score: 0.03094

Sequence: UGGAAUUCAAUCGCCUUGC
gene: WDR76
seed-corrected z-score: -0.1776

Sequence: UUCCUGUCUUGUUCGGGCC
gene: NTMT1
seed-corrected z-score: 0.8401

Sequence: UUUACUAUGUUCAUCAACC
gene: PCF11
seed-corrected z-score: 2.604

Sequence: AGAAUUCUGAUUGGUGUCG
gene: DAB2
seed-corrected z-score: -0.02631

Sequence: UCAUUGUCUAGGAUGGCAG
gene: KANK3
seed-corrected z-score: -1.165

Sequence: AUAGCUGCAUGUAAAAUGU
gene: FABP5
seed-corrected z-score: -1.352

Sequence: AUGCGGAGCAUAUAACAGC
gene: LOC283440
seed-corrected z-score: 0.6105

Sequence: UUCCGAAGUCCUUCCAUGG
gene: LCE5A
seed-corrected z-score: -0.5737

Sequence: UAUGUCAGCAUGCCGAGUU
gene: CATIP
seed-corrected z-score: -0.1776

Sequence: AUAGCUAUAUAUAUCGUGC
gene: RIPK2
seed-corrected z-score: 0.1144

Sequence: AAACCGUACAUGUUGAGUU
gene: HSF4
seed-corrected z-score: -1.005

Sequence: UUUGUUGUAAAAUAGUAGC
gene: CLEC12B
seed-corrected z-score: -0.3814

Sequence: AUAGGUCUUGCUAAAGGUG
gene: KIAA1715
seed-corrected z-score: -1.647

Sequence: AAUGUGAUUCUCAGGGAGG
gene: DRAXIN
seed-corrected z-score: -0.1114

Sequence: UAGUUGAACAUAUCGCUGG
gene: SPINT2
seed-corrected z-score: 0.6238

The first 3 entries again:

UAGGCUUUUGUUGUCUUCG against FAM71B read seed-corrected z-score 0.2962.
AUUUUGACACGGUCGAAGC against ROMO1 read seed-corrected z-score 0.6948.
ACUGUCUUGACCUGUUUCC against CCDC8 read seed-corrected z-score -1.603.

From PubChem BioAssay record AID1159506 (NCATS, 2015).